US20250263472A1
Substitutions are numbered along the chain they refer to. These are yes or no findings as the source states them, for the method shown. Some binding calls cover weakened binding; strength is not graded here. For part of these data: Where a sequence is shown, tags or fusion partners need not be part of it.

Assays:
[1] = target: T1, His-tagged recombinant Ara h 2 (peanut) (UniProt Q6PSU2); assay: binding ELISA on recombinant Ara h 2 (FIG. 3C)
T1 sequence (looked up): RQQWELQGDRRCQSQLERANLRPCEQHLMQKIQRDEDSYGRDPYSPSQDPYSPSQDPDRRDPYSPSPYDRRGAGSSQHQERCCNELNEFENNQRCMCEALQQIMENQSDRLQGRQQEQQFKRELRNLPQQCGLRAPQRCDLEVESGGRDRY

[2] = target: T2, Natural Ara h 2 (InBio) (peanut) (UniProt Q6PSU2); assay: SPR, Carterra LSA (Example 2)
T2 sequence (looked up): T1 sequence (looked up)

[3] = target: T1, His-tagged recombinant Ara h 2 (peanut); assay: blocking ELISA, competitor captured peanut allergic plasma IgE, 9 plasmas
[4] = target: T2, Natural Ara h 2 (InBio) (peanut); assay: told in the description of Combination-1; assay not named

B1: Molecule-2e (antibody, human IgG4 S228P, kappa, V domains shown)
VH: EVQLVESGGGVVQPGRSLTLTCVGSGFNFDDYTMHWVRQRPGKGLEWVSSIRYNSVRIEYVESVKGRFTTSRDNAKNSLYMEMKSLRPEDTAFYYCVKDNGFRSFEIWGQGTMVIVSS
VL: EIVMTQSPLSLPVTPGEPASISCRSTQSLEHSNGYHYLDWYVQKAGQSPQLLISLGSKRASGVPDRFSGSVSGTDFTLKISRVEAEDVGVYYCMQALQTWTFGQGTKVEIKR
For B1, which binding [1] is on record?
Its binding is “binds”.

And the binding [2]?
Its binding is “binds”.

What about the binding [3] of the same binder?
The binding was “binds”.

B2: Molecule-2f (antibody, human IgG4 S228P, kappa, V domains shown)
VH: QEQLVQSGGGVVQPGRSLTVSCAGSGFTFSYHALHWVRQAPGKGLEWLAVISDNGNRRDYVDSVRGRFSVSRDNSRNTVFLQMDSLRADDSAVYFCARTMDFDSGSHYYGLDVWGQGTTVIVSS
VL: EVVLTQSPALLSLSPGERASLSCRASQTINSNYLAWYQLKPGQAPRLVIYLTSTRAPGIPARFSGSGSGTDFTLTIDRLEPEDFALYYCQHYSRSPPYSFGQGTRLDVKR
B2 was tested. Which binding [2] did it give?
Its binding is “binds”.

What about the binding [3] of the same binder?
The binding was “binds”.

B3: Molecule-2d (antibody, human IgG4 S228P, lambda, V domains shown)
VH: EVALVESGGGLVQPGGSLRLSCTASGFKFSDHWMTWVRQAPGKGLEWVASISEDGREKVYVDSVRGRFTLSRDNAKKSLSLQMTSLRVDDTAKYHCARVSTRVVNDGFDIWGQGAMVIVSL
VL: SYVLTQPPSVSAAPGETARITCGGKNIADKNVHWYQHRPGQAPVMVIYDDDDRPSEIPDRFSGSNSGNTATLTISRVEAGDEADYYCQVWDSRSEYVFGTGTTVTVLG
B3 was tested. Which binding [1] did it give?
The binding was “binds”.

And the binding [2]?
Its binding is “binds”.

What about the binding [3] of the same binder?
Its binding is “binds”.

B4: Molecule-2c (antibody, human IgG4 S228P, kappa, V domains shown)
VH: B2 VH with Q1E, E2V, N54A, N56D
VL: B2 VL
Which binding [4] does the source give for B4 here?
Its binding is “binds”.
